The values that follow come from patent publication US20240158504A1.

The assay deals with Cynomolgus Macaque PD-L1 (Cynomolgus Macaque) (UniProt G7PSE7). The experiment in a line: Gator instrument; summary of Table 7.

These are yes or no findings as the source states them, for the method shown. Some results given as binding are weak or reduced against the parent protein; the word gives no strength.

Regarding BJ-005-P1 (from UniProt P0DOX7 1-214), the binding result is “binds”.
